Paper PMC10074118
These are yes or no findings as the source states them, for the method shown. In cells and extracts the contact can be indirect. Some results given as binding are weak or reduced against the parent protein; the word gives no strength. Where a sequence is shown, tags or fusion partners need not be part of it.

Target: T1, Arl6/BBS3 (UniProt Q9H0F7)
T1 sequence: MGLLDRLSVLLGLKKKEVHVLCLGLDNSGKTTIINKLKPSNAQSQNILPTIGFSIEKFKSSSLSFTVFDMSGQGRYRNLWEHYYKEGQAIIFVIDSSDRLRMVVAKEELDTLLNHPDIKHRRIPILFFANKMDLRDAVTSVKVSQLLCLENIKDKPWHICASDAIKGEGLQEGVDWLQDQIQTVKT
Assay: co-IP; lysates of HEK293 transiently expressing BBS1 or BBS1 K143R and BBS3; precipitating antibody not told

- binding: binds
B1: BBS1‐myc (wild type) (protein, UniProt Q8NFJ9 1-593)
chain: MAAASSSDSDACGAESNEANSKWLDAHYDPMANIHTFSACLALADLHGDGEYKLVVGDLGPGGQQPRLKVLKGPLVMTESPLPALPAAAATFLMEQHEPRTPALALASGPCVYVYKNLRPYFKFSLPQLPPNPLEQDLWNQAKEDRIDPLTLKEMLESIRETAEEPLSIQSLRFLQLELSEMEAFVNQHKSNSIKRQTVITTMTTLKKNLADEDAVSCLVLGTENKELLVLDPEAFTILAKMSLPSVPVFLEVSGQFDVEFRLAAACRNGNIYILRRDSKHPKYCIELSAQPVGLIRVHKVLVVGSTQDSLHGFTHKGKKLWTVQMPAAILTMNLLEQHSRGLQAVMAGLANGEVRIYRDKALLNVIHTPDAVTSLCFGRYGREDNTLIMTTRGGGLIIKILKRTAVFVEGGSEVGPPPAQAMKLNVPRKTRLYVDQTLREREAGTAMHRAFQTDLYLLRLRAARAYLQALESSLSPLSTTAREPLKLHAVVQGLGPTFKLTLHLQNTSTTRPVLGLLVCFLYNEALYSLPRAFFKVPLLVPGLNYPLETFVESLSNKGISDIIKVLVLREGQSAPLLSAHVNMPGSEGLAAA
